Reference: the M2OR odorant receptor database
This is a selection; strong and weak results do not stand in their true shares. The calls were merged from several studies; some rest on single wells. This is one part of the list.

Columns and labels:
Conditions in all cases: stereoisomer not certain
OR4L1 = test system: T1, OR4L1
T1 sequence (whole entry): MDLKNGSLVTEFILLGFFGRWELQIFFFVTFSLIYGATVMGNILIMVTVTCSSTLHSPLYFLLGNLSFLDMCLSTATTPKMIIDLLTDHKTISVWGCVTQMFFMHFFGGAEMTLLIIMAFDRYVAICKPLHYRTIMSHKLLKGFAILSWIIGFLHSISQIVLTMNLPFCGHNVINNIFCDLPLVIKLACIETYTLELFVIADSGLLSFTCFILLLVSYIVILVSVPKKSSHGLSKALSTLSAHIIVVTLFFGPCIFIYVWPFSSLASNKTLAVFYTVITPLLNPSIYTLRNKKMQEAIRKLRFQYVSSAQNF
In short: (§1)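 Whether a receptor–molecule pair is responsive (active) rests on the original authors' judgment that its measured signal was statistically different from baseline. Pairs without that judgment are non-responsive (inactive). Sources used varied assay methods, commonly transient luciferase assays in mammalian cell lines.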

OR4M1 (Homo sapiens) = biological target: T2, OR4M1 (Homo sapiens) (UniProt Q8NGD0)
T2 sequence (whole entry): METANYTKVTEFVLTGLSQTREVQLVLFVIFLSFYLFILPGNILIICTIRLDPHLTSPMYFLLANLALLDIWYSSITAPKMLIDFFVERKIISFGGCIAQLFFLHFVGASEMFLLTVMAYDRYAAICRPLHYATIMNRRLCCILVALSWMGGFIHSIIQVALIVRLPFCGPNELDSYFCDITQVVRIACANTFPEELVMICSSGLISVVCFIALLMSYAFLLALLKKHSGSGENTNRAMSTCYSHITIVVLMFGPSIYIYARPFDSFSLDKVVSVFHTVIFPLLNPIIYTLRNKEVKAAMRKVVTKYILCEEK
In short: as §1

OR4N2 (Homo sapiens) = biological target: T3, OR4N2 (Homo sapiens) (UniProt Q8NGD1)
T3 sequence (whole entry): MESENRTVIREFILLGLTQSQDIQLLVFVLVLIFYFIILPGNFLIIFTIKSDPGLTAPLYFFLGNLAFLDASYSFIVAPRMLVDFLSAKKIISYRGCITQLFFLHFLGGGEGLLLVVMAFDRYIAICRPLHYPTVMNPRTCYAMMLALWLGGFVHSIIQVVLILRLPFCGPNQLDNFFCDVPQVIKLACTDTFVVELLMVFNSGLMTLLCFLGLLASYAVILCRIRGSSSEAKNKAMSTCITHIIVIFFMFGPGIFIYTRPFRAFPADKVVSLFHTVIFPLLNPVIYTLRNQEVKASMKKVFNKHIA
In short: as §1

OR4N4 (Homo sapiens) = biological target: T4, OR4N4 (Homo sapiens) (UniProt Q8N0Y3)
T4 sequence (whole entry): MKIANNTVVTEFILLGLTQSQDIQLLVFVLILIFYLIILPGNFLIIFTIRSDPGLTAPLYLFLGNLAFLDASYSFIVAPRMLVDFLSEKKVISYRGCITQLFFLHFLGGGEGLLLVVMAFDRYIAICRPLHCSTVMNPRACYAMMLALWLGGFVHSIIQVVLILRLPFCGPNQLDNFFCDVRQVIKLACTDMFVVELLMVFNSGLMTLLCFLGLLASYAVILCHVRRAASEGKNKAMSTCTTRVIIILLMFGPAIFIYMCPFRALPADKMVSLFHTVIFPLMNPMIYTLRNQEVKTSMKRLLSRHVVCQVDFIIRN
In short: as §1

OR4N5 (Homo sapiens) = biological target: T5, OR4N5 (Homo sapiens) (UniProt Q8IXE1)
T5 sequence (whole entry): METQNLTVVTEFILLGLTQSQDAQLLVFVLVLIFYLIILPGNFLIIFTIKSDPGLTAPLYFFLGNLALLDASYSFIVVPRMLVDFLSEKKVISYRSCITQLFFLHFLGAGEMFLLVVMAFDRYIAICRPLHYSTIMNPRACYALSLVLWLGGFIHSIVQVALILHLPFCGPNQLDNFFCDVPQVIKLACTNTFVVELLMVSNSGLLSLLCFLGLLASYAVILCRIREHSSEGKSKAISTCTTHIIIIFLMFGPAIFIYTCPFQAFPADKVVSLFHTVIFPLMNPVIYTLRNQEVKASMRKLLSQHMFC
In short: as §1

OR4P4 [1] = test system: T6, OR4P4
T6 sequence (whole entry): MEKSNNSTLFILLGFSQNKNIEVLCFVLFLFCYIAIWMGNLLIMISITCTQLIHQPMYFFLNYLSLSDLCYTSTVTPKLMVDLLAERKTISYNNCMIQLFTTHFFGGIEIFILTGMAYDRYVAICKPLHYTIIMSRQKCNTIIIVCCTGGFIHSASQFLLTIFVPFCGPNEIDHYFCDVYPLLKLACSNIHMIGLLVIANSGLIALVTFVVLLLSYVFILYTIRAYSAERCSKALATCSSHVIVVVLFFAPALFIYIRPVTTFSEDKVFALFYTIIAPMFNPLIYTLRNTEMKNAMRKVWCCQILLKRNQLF
In short: as §1

OR4P4 [2] = test system: T7, OR4P4; remark: listed apart in the source
T7 sequence (whole entry): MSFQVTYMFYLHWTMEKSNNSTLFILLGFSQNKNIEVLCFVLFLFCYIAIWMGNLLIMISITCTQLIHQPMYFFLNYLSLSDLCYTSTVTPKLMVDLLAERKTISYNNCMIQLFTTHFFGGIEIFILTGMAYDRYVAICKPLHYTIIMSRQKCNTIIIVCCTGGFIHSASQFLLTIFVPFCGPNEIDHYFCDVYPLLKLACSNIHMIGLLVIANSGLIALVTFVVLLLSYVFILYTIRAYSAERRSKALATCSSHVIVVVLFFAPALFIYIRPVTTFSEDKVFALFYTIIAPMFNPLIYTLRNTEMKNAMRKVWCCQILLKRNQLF
In short: as §1

OR4Q3 (Homo sapiens) = biological target: T8, OR4Q3 (Homo sapiens) (UniProt Q8NH05)
T8 sequence (whole entry): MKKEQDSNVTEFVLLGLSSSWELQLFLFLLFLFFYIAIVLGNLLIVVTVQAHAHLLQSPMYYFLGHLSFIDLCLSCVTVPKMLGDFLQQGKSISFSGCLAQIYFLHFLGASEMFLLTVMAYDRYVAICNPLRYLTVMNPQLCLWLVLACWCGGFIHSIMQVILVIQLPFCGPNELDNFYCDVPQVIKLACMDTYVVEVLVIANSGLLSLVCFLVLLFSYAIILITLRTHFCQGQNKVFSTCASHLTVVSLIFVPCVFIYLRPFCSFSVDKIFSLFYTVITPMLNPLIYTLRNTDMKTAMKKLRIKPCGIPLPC
In short: as §1

OR4S1 (Homo sapiens) = biological target: T9, OR4S1 (Homo sapiens) (UniProt Q8NGB4)
T9 sequence (whole entry): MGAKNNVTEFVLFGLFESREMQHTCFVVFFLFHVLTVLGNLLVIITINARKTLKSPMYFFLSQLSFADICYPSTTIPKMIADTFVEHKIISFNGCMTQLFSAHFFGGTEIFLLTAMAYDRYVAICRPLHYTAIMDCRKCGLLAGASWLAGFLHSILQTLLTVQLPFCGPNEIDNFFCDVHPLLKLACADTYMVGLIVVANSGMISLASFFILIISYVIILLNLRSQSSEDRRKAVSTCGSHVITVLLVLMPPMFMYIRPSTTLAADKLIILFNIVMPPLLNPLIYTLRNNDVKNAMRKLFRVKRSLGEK
In short: as §1

OR4S2 (Homo sapiens) = biological target: T10, OR4S2 (Homo sapiens) (UniProt Q8NH73)
T10 sequence (whole entry): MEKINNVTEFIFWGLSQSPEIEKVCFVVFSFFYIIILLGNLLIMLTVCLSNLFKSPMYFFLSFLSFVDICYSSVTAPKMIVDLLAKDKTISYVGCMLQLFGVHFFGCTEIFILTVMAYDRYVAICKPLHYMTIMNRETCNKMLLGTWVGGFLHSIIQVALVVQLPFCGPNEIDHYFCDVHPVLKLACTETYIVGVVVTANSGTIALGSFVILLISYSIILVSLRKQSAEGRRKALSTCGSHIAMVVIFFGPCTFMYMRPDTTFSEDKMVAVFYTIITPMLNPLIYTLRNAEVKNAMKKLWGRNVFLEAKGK
In short: as §1

Measured: odorant receptor agonist call;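 also: active if original authors judged signal statistically different from baseline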

CS
inactive: all assays above
